In PubChem BioAssay AID2662 (National Center for Advancing Translational Sciences (NCATS), 2010):
“And” between values parts separate entries of the source, which are not always exact repeats. Equal entries are not always repeated. In all, about 290,000 compounds went through this assay and about 110 (0.038%) were called active. Inconclusive means that the source gave no clear call. Such entries were picked first, then a sample of the others. The call rests on the fitted dose curve; in most records, active means well fitted inhibition curve with a large enough effect in the polarisation, with a control signal flat (not every such curve was filed as active); inconclusive means small, poorly fitted or top-dose-only effect, or effect the other way, or a change in a side signal; inactive means no such curve, though single readings can be large or run the other way; the % refers to the polarisation. Where the call is inconclusive, the potency comes from a doubtful curve fit. “Side channel” marks fits to a control or component signal instead of the main read-out.

By UniProt entry, the sequences of proteins in these tests, tags left out.
UniProt Q03164, whole entry, looked up: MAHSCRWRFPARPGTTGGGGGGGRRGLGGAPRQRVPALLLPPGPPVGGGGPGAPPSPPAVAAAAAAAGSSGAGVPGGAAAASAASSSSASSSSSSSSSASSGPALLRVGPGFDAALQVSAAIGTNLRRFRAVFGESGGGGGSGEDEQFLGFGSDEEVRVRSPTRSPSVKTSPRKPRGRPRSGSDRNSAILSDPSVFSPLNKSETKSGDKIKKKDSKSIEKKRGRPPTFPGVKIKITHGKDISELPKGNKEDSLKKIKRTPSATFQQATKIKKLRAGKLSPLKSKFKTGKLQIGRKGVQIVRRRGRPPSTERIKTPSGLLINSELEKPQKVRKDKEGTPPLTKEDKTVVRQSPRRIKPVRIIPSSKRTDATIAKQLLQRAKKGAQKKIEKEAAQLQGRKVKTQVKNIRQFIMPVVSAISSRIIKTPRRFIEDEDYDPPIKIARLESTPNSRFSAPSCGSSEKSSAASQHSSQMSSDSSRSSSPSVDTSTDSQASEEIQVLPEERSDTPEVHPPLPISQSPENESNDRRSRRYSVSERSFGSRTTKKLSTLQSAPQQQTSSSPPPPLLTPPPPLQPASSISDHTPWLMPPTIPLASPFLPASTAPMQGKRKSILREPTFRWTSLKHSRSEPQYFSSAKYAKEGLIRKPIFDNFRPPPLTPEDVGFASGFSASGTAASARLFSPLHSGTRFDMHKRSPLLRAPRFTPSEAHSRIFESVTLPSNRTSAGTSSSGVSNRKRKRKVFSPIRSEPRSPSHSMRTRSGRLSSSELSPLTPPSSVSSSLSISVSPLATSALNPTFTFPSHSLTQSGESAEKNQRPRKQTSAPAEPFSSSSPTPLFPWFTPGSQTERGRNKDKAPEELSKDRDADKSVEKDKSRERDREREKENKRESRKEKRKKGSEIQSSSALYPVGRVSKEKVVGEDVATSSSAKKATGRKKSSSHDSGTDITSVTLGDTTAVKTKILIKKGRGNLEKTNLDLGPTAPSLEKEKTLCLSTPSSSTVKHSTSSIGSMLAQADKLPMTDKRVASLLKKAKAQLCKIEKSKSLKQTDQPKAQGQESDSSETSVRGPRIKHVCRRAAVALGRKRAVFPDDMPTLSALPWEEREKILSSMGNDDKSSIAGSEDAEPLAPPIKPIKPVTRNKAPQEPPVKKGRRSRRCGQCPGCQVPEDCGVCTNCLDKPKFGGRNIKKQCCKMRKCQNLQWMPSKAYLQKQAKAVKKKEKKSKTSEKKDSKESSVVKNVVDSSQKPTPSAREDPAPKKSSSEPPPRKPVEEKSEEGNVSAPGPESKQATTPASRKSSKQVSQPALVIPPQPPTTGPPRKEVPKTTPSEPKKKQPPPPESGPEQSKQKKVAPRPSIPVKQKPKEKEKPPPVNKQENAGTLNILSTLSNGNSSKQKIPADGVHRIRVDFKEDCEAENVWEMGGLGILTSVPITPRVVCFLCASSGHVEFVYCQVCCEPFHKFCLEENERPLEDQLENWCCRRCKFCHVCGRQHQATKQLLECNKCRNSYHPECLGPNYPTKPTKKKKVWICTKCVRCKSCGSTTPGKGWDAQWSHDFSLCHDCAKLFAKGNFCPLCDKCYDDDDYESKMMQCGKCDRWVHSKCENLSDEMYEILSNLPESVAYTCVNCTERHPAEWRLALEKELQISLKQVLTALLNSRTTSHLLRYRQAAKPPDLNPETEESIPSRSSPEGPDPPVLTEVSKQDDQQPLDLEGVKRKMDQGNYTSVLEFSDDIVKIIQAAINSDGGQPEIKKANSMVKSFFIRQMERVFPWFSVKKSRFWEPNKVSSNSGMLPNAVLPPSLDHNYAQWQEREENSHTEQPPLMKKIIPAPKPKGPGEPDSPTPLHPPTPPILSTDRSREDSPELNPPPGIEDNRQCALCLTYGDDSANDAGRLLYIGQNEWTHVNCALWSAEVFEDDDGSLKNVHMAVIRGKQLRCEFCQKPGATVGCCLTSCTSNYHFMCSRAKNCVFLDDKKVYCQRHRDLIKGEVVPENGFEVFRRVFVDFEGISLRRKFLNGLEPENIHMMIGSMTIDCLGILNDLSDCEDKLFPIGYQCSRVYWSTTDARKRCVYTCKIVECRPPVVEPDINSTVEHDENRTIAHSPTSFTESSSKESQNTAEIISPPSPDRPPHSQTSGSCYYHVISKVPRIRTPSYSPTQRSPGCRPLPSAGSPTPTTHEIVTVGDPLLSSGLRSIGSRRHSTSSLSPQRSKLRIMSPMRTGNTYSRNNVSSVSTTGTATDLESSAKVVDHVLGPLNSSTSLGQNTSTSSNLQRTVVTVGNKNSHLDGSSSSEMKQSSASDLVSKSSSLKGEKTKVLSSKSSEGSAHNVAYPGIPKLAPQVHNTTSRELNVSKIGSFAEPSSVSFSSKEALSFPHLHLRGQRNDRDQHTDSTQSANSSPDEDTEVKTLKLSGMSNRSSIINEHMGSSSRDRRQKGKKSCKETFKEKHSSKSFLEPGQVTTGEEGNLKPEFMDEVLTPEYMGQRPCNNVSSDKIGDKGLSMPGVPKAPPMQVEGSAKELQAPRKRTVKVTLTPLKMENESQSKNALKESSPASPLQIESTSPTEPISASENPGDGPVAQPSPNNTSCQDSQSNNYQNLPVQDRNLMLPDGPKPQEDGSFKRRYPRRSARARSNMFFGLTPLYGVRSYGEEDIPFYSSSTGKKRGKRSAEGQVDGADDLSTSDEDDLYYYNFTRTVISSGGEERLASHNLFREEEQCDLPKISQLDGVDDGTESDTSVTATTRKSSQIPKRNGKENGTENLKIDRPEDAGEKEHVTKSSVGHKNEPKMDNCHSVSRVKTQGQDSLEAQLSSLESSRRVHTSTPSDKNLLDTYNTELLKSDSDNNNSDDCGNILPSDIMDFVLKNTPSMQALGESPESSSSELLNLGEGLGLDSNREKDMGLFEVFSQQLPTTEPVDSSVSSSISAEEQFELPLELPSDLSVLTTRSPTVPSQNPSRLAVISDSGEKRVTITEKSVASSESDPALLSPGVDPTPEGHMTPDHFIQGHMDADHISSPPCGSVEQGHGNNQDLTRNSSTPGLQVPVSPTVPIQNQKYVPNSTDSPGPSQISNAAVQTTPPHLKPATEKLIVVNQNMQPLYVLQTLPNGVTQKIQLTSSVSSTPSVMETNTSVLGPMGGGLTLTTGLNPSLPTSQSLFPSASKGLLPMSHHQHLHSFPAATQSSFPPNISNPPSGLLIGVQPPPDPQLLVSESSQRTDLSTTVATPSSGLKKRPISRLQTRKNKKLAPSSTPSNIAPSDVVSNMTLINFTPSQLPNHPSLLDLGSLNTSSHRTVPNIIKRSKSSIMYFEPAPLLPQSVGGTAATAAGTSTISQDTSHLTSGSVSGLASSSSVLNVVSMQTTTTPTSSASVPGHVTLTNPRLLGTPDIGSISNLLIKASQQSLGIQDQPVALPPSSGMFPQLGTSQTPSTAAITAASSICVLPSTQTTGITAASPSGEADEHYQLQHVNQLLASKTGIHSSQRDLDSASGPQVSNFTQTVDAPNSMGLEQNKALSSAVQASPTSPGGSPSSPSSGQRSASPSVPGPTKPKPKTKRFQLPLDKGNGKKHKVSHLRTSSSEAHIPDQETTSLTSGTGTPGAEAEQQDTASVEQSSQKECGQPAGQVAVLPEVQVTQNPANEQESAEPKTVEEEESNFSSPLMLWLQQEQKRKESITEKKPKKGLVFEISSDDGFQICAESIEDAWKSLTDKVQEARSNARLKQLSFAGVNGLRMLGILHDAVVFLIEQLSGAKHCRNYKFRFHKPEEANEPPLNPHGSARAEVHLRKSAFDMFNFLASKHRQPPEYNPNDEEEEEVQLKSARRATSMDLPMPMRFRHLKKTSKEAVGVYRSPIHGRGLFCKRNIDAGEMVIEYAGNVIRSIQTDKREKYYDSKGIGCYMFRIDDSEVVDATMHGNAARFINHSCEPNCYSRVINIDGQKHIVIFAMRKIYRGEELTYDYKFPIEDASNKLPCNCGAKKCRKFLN

The compounds below were run against Histone-lysine N-methyltransferase 2A (Homo sapiens) (UniProt Q03164) (assay: qHTS Fluorescence Polarization Assay for Inhibitors of MLL CXXC domain - DNA interaction). Conditions: MLL-CXXC / FITC-HOXA9 DNA fluorescence polarization; series mostly up to 115 µM.
Outline: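 Steps: dispense CXXC domain solution (7 uM) → pin compounds or unlabeled HOX-A9 DNA control → 5 min ambient → add FLSN-HOX-A9 solution (50 nM) → spin → 30 min ambient → fluorescence polarization. Tris pH 7.5/NaCl/DTT/BSA buffer.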
Potency means the concentration at half of the fitted maximal effect.

Question: `CCOC(=O)c1c(/N=C/c2c(O)n(-c3ccc(F)cc3)c(=S)[nH]c2=O)sc2c1CCCC2` was tested. Which Potency did it give?
Answer: inconclusive: 56.2 µM [fluorescent, side channel, single point]

Question: `CCCCCC(=O)N[C@@H](c1ccccc1)[C@@H](O)C(=O)O[C@H]1C[C@@]2(O)[C@@H](OC(=O)c3ccccc3)C3[C@](C)(C(=O)[C@H](O)C(=C1C)C2(C)C)[C@@H](OC1OCC(O)C(O)C1O)C[C@H]1OC[C@@]31OC(C)=O` (some centres undefined) was tested. Which Potency did it give?
Answer: inconclusive: 3.55 µM [fluorescent, side channel, full curve, poor fit]

Question: For `Cc1c(N=Nc2c(O)n(Cc3ccccc3)c(=O)[nH]c2=O)c(=O)n(-c2ccccc2)n1C`, which Potency is on record?
Answer: inactive

Question: With `Cc1ccc(N2C(=O)NC(=O)/C(=C\c3cc(C)n(-c4cc(C(=O)O)cc(C(=O)O)c4)c3C)C2=O)cc1` as the compound, how does the Potency read?
Answer: active: 8.91 µM

Question: Which Potency does the source give for `CN1CCN(C(=O)COc2ccc(-c3nc4ccccc4s3)cc2)CC1` here?
Answer: inactive

Question: For `COC(=O)C1C=C2c3cccc4[nH]cc(c34)CC2N(C)C1` (centres undefined), which Potency is on record?
Answer: inconclusive: 39.8 µM [fluorescent, side channel, single point]

Question: `CCC(=Nc1ccc2c(c1)CCC2)c1c(O)n(-c2ccc(OC)cc2)c(=O)[nH]c1=O` was tested. Which Potency did it give?
Answer: inactive

Question: Which Potency does the source give for `NC(=O)c1ccc(N=Nc2c(O)[nH]c(=O)[nH]c2=O)cc1` here?
Answer: inconclusive: 35.5 µM [fluorescent, side channel, single point]

Question: How did the Potency turn out when `CCOc1ccc(N2C(=O)NC(=O)/C(=C\c3ccc(N4CCCCC4)o3)C2=O)cc1` was run?
Answer: inconclusive: 7.94 µM [fluorescent, side channel, partial curve]

Question: How did the Potency turn out when `CC[n+]1c(/C=C/C=C/c2ccc(N(C)C)cc2)sc2ccccc21` was run?
Answer: inconclusive: 39.8 µM [quencher, side channel, partial curve]

Question: With `COc1ccccc1N1CCN(Cc2ccc(Br)s2)CC1` as the compound, how does the Potency read?
Answer: inconclusive: 70.8 µM [quencher, side channel, single point]

Question: How did the Potency turn out when `CCOP(=O)(OCC)C(CC)N1CCOCC1` (centres undefined) was run?
Answer: inactive

Question: Which Potency does the source give for `CCCCC1(CCCC)C(=O)NC(=Nc2cccc(C)c2)NC1=O` here?
Answer: inactive

Question: For `CN1C(=O)NC(=O)/C(=C/c2ccc([N+](=O)[O-])o2)C1=O`, which Potency is on record?
Answer: inconclusive: 31.6 µM [fluorescent, side channel, partial curve]

Question: For `CCN(CC)c1ccc(N=Cc2c(O)n(-c3cc(OC)ccc3OC)c(=O)[nH]c2=O)cc1`, which Potency is on record?
Answer: inconclusive: 35.5 µM [fluorescent, side channel, partial curve]

Question: `COc1cccc(N2C(=O)NC(=O)/C(=C/c3ccc([N+](=O)[O-])s3)C2=O)c1` was tested. Which Potency did it give?
Answer: inconclusive: 89.1 µM [inhibitor, single point]

Question: `CCOC(=O)c1c(C)n(Cc2ccc(F)cc2)c2ccc(O)cc12` was tested. Which Potency did it give?
Answer: inactive

Question: Which Potency does the source give for `CC(C)NC(C)C(=O)c1ccc2ccccc2c1` (centres undefined) here?
Answer: inconclusive: 1 µM [inhibitor, full curve]

Question: With `C=CCn1c(O)c(C=Nc2ccc(N(CC)CC)cc2)c(=O)[nH]c1=O` as the compound, how does the Potency read?
Answer: inconclusive: 39.8 µM [fluorescent, side channel, single point]

Question: Which Potency does the source give for `C=CCN1C(=O)/C(=C/c2cc(C)n(-c3ccccn3)c2C)C(=O)NC1=S` here?
Answer: inconclusive: 20 µM [inhibitor, partial curve]

Question: For `CCN1CC2(COC(=O)c3ccccc3N)CCC(OC)C34C5CC6C(OC)CC(O)(C5C6OC)C(O)(C(OC)C23)C14` (centres undefined), which Potency is on record?
Answer: inconclusive: 17.8 µM [quencher, side channel, partial curve]

Question: With `COc1ccc2c(c[n+](C)c3c4cc5c(cc4ccc23)OCO5)c1OC` as the compound, how does the Potency read?
Answer: inconclusive: 22.4 µM [quencher, side channel, partial curve]

Question: Which Potency does the source give for `O=C(O)c1ccc2[nH]cc(CCCCN3CC=C(c4ccccc4)CC3)c2c1` here?
Answer: inconclusive: 12.6 µM [quencher, side channel, full curve, poor fit]

Question: Which Potency does the source give for `CC(Cc1ccccc1)N1Cc2ccccc2C1` (centres undefined) here?
Answer: inconclusive: 50.1 µM [fluorescent, side channel, partial curve]

Question: With `Fc1ccccc1CN1CCN(c2ccc(Cl)cc2)CC1` as the compound, how does the Potency read?
Answer: inconclusive: 35.5 µM [fluorescent, side channel, partial curve]

Question: How did the Potency turn out when `COc1ccc(/C=C2/C(=O)NC(=O)N(C3CCCCC3)C2=O)cc1CSc1ccccn1` was run?
Answer: inconclusive: 20 µM [inhibitor, partial curve]

Question: `Cc1cc(/C=C2\C(=O)NC(=O)N(c3ccccc3)C2=O)c(C)n1-c1ccc(C(=O)O)c(Cl)c1` was tested. Which Potency did it give?
Answer: inconclusive: 22.4 µM [inhibitor, partial curve]

Question: For `Cc1ccc(/C=C2\C(=O)NC(=S)N(c3ccc(F)cc3)C2=O)s1`, which Potency is on record?
Answer: inconclusive: 31.6 µM [inhibitor, single point]

Question: Which Potency does the source give for `COc1cccc2c1C(=O)c1c(O)c3c(c(O)c1C2=O)C[C@@](O)(C(=O)CO)C[C@@H]3O[C@H]1C[C@H](N)[C@H](OC2CCCCO2)[C@H](C)O1` (some centres undefined) here?
Answer: active: 63.1 µM

Question: `C=CCN1C(=O)NC(=O)/C(=C/c2ccc(N(C)C)c(Br)c2)C1=O` was tested. Which Potency did it give?
Answer: inconclusive: 31.6 µM [inhibitor, single point]

Question: For `CCCCC(=O)N/N=C/c1c(O)n(CCCC)c(=S)[nH]c1=O`, which Potency is on record?
Answer: inactive

Question: How did the Potency turn out when `O=C1NC(=O)C(=Cc2ccc3c(c2)OCO3)C(=O)N1` was run?
Answer: inconclusive: 35.5 µM [inhibitor, single point]

Question: For `C=CCn1c(O)c(/C=C/C=Nc2ccccc2)c(=O)[nH]c1=O`, which Potency is on record?
Answer: inconclusive: 31.6 µM [fluorescent, side channel, partial curve]

Question: How did the Potency turn out when `CCCCCCCSc1cc(OC)c(CCN(C)C)cc1OC` was run?
Answer: inconclusive: 28.2 µM [quencher, side channel, partial curve]

Question: For `O=c1c2ccccc2c(C=Nc2ccc(O)cc2)c(O)n1Cc1ccccc1`, which Potency is on record?
Answer: inconclusive: 70.8 µM [inhibitor, single point]

Question: How did the Potency turn out when `Oc1cccc2nc3ccccc3nc12` was run?
Answer: inconclusive: 4.47 µM [inhibitor, full curve]

Question: `O=c1[nH]c(=O)n(C2CCCCC2)c(O)c1/C=C/C=Nc1ccccc1` was tested. Which Potency did it give?
Answer: inconclusive: 35.5 µM [fluorescent, side channel, partial curve]

Question: For `Cn1c(C(=O)N2CCC3(CC2)OCCO3)cc2c(=O)n(C)c3ccccc3c21`, which Potency is on record?
Answer: inactive

Question: With `COc1ccc(-c2cc(=NCC(=O)O)c3ccccc3o2)cc1` as the compound, how does the Potency read?
Answer: inconclusive: 70.8 µM [fluorescent, side channel, single point]

Question: How did the Potency turn out when `CCCCCCn1c(O)c(C=NCCCn2ccnc2)c(=O)[nH]c1=O` was run?
Answer: inconclusive: 35.5 µM [fluorescent, side channel, partial curve]

Question: For `CCON=O`, which Potency is on record?
Answer: inconclusive: 35.5 µM [quencher, side channel, partial curve, poor fit]

Question: `Cc1c2ccncc2c(C)c2c1[nH]c1ccccc12` was tested. Which Potency did it give?
Answer: inconclusive: 1.58 µM [inhibitor, full curve, poor fit] and inconclusive: 10 µM [quencher, side channel, full curve]

Question: With `CCn1c(O)c(/C=N/NC(=O)c2ccncc2)c(=O)[nH]c1=S` as the compound, how does the Potency read?
Answer: inactive

Question: For `CN(C)c1ncc(/C=C2/C(=O)NC(=S)N(C3CCCCC3)C2=O)cn1`, which Potency is on record?
Answer: inconclusive: 35.5 µM [inhibitor, partial curve, poor fit]

Question: For `COc1cccc(CNCCc2c[nH]c3ccccc23)c1`, which Potency is on record?
Answer: inconclusive: 70.8 µM [fluorescent, single point]

Question: How did the Potency turn out when `O=C1NC(=O)N(CCC2=CCCCC2)C(=O)/C1=C/c1cccs1` was run?
Answer: inconclusive: 39.8 µM [inhibitor, partial curve]

Question: Which Potency does the source give for `O=C(N/N=C/c1c(O)n(C2CCCCC2)c(=S)[nH]c1=O)c1ccccc1O` here?
Answer: inactive

Question: How did the Potency turn out when `O=C1NC(=O)N(Cc2ccco2)C(=O)/C1=C\c1cccn1CCOc1ccccc1` was run?
Answer: inconclusive: 31.6 µM [inhibitor, partial curve]

Question: For `CC(CCC(=O)O)C1CCC2C3C(=O)C[C@@H]4CC(=O)CC[C@@]4(C)C3CC(=O)[C@]12C` (some centres undefined), which Potency is on record?
Answer: inconclusive: 39.8 µM [quencher, side channel, full curve, poor fit]

Question: For `O=C(N/N=C/c1c(O)n(C2CCCCC2)c(=S)[nH]c1=O)c1ccccc1`, which Potency is on record?
Answer: inactive

Question: With `CCN(CC)c1ccc(N=Cc2c(O)n(-c3ccc(Cl)cc3)c(=O)[nH]c2=O)cc1` as the compound, how does the Potency read?
Answer: inconclusive: 28.2 µM [fluorescent, side channel, partial curve]

Question: How did the Potency turn out when `CN1C(=O)/C(=C\c2ccc(Br)s2)C(=O)NC1=S` was run?
Answer: inconclusive: 28.2 µM [inhibitor, partial curve]

Question: For `CN1CCC2(CC1)CC(NC=O)c1ccccc1O2` (centres undefined), which Potency is on record?
Answer: inconclusive: 31.6 µM [inhibitor, single point]

Question: For `O=C(O)c1cccc2c1NC(C(=O)O)C1CC(Sc3ccccc3[N+](=O)[O-])C(Cl)C21` (centres undefined), which Potency is on record?
Answer: inactive

Question: How did the Potency turn out when `CC(C)(CN)CC(=O)O` was run?
Answer: inactive

Question: With `O=c1[nH]c(=O)n(-c2ccc(F)cc2)c(O)c1/C=C1\C=Nc2ccccc21` as the compound, how does the Potency read?
Answer: inconclusive: 28.2 µM [fluorescent, side channel, partial curve]

Question: With `Cc1cccc(N2C(=O)NC(=O)/C(=C\c3cnn(-c4ccccc4)c3)C2=O)c1` as the compound, how does the Potency read?
Answer: inconclusive: 20 µM [inhibitor, partial curve]

Question: Which Potency does the source give for `CCOC(=O)c1c(/N=C/C2C(=O)NC(=S)NC2=O)sc(C)c1C` here?
Answer: inconclusive: 50.1 µM [fluorescent, side channel, single point]

Question: For `COc1ccc(/C=C2\C(=O)NC(=S)N(C)C2=O)cc1C`, which Potency is on record?
Answer: inconclusive: 7.94 µM [inhibitor, full curve]
